# Whole data set: some 33,000 sequences, median “E-score (-0.5 to 0.5)” near -0.0034, cut for the highest 2% near 0.25. This is one part of the list.
# Target: T1, Yap3 (UniProt P38749)
# T1 sequence: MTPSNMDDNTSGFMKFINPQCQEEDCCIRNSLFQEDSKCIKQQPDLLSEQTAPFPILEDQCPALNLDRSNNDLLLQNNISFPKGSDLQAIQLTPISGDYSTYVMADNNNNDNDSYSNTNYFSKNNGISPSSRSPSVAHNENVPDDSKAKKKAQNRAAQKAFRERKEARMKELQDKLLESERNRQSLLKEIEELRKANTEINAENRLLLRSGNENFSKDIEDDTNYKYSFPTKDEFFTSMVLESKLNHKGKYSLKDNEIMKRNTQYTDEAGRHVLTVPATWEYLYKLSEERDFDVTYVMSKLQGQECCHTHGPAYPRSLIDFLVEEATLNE
# Assay: PBM E-score (8-mer binding enrichment) (E-score (-0.5 to 0.5)); higher = stronger / more preferred TF binding
# Conditions: protein concentration: 100 nM; construct: GST-full length
# In short: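 Universal all-10-mer Agilent arrays, fresh or stripped once, were converted to double-stranded form by primer extension. GST-tagged yeast transcription factors from PURExpress in vitro transcription/translation, full-length or DNA-binding domain only, were applied at about 100-200 nM and detected with fluorescent anti-GST. After masliner normalisation, the Universal PBM Analysis Suite scored each ungapped eight-base word together with its reverse complement by E-score.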
row,Sequence,PBM E-score
1,CAATAATA,0.237
2,AACGGTGC,-0.0807
3,ACTGGGCC,-0.19
4,CGAACCTC,0.0449
5,CGCACACG,-0.135
6,AGAGTCTA,-0.205
7,GGGACCTA,0.0331
8,ATTTAAAA,0.174
9,ATTGTGAC,0.189
10,GTCAAGAA,0.2
11,GTACGCAA,-0.025
12,CTGAGGGA,-0.192
13,GCAGTTTA,-0.0546
14,CTAGCAGA,-0.0869
15,AATCAAGG,0.127
16,CCCGGCAC,-0.398
17,CCCAAGTA,-0.00219
18,GGTATCAC,-0.016
19,GGCATCAC,-0.0939
20,AGGTTTTC,0.087
21,AATTCGGT,0.231
22,ACCTTAAA,0.0173
23,AGCCTAGG,-0.201
24,ATACACAT,0.2
25,GTACAGCA,-0.136

row,Sequence,PBM E-score
1,ACAGATAC,0.0866
2,GTCAGTCA,0.067
3,CTGTATAC,0.0702
4,GTCACCTA,-0.229
5,ACTTAATC,0.0861
6,ACGATTGC,0.124
7,ACGACCCG,-0.148
8,ACGGGGGA,-0.125
9,CCATCGCC,-0.104
10,CACGGTGC,-0.239
11,CCTATACA,0.0993
12,AAAGCGAC,0.101
13,ATAAAAAG,0.261
14,GGGAATAA,0.2
15,AAAGCACT,0.0728
16,AATACGCC,-0.00808
17,CTCTGCAC,-0.173
18,CCGCTATC,-0.0253
19,CGTCCCCA,-0.216
20,GGATTTGA,0.00732
21,CTACGTAC,0.0559
22,ACGGAACC,0.0898
23,CTGGTGAA,-0.113
24,GACGGTTA,-0.0113
25,GAATAATA,0.292

row,Sequence,PBM E-score
1,ACAAGGAT,0.113
2,ATCGGTCA,-0.0834
3,CATTATCG,0.129
4,CAAAGAGA,-0.161
5,ACTTGTGC,-0.111
6,AAGGTACA,0.0352
7,CGCTAAAG,0.0735
8,AAAAGTCA,-0.0413
9,TCGTTGAA,0.0281
10,AAATCCTC,-0.0472
11,ATAACTCC,0.0161
12,CTTTACAC,0.179
13,GCTGGCCC,-0.248
14,AGATATGC,0.041
15,AAGCGTCC,-0.189
16,CAGCAGAG,-0.151
17,ATGACGGC,-0.0426
18,CGAGGAAA,0.0324
19,CTATTTTC,0.114
20,CTGCACCC,-0.177
21,GCGCTGAC,0.0532
22,CTAGGTAC,-0.0662
23,GGATGCCC,-0.206
24,ACCGAGCT,-0.13
25,CATATACA,0.248

row,Sequence,PBM E-score
1,ATATTCCA,0.241
2,CGCAGACA,0.0128
3,CATAGTGA,-0.13
4,ATGGTCAA,0.163
5,CATCCCAG,-0.108
6,GGCCTTCA,0.0712
7,AAATGGAG,0.186
8,CGGAATCA,0.198
9,CACGTATG,-0.0108
10,GCTTGTCA,0.0598
11,CTCCCACA,-0.0565
12,CGTACCGC,-0.0177
13,AACCGACA,0.017
14,CAATTTGG,0.0283
15,ACACGGGA,-0.0598
16,AACACTTC,0.15
17,CCCCGCGC,-0.206
18,GCCCGGGA,-0.24
19,ACCACCCT,-0.266
20,ATCGGCAC,0.0497
21,CTATGGGC,-0.0642
22,GCCCCAGA,-0.321
23,CCACACCC,0.00279
24,CATGATCG,0.0217
25,CGCATATC,0.246

# Quoted at random: five records from the list, in no set order.
row,Sequence,PBM E-score
17,CCCAAGTA,-0.00219
18,CCGCTATC,-0.0253
7,CGCTAAAG,0.0735
6,AAGGTACA,0.0352
24,ACCGAGCT,-0.13

# Five consecutive entries from above, for reference:
row,Sequence,PBM E-score
6,AGAGTCTA,-0.205
7,GGGACCTA,0.0331
8,ATTTAAAA,0.174
9,ATTGTGAC,0.189
10,GTCAAGAA,0.2

# Continuation:

row,Sequence,PBM E-score
1,CAGGCTAC,-0.097
2,CTGGTCAC,-0.0493
3,TACTCCCA,0.0414
4,AACAAGGT,-0.0132
5,ATAAATTC,0.153
6,CCGCACTC,0.0995
7,AAGTCTAC,-0.121
8,AACCTTCA,0.0166
9,AAGCATAT,0.132
10,ACCGGACA,-0.164
11,CGGCTAGA,-0.0418
12,ACGTGGAC,-0.133
13,CAAAGCCC,-0.169
14,AGGAGTTG,0.0239
15,CGTGTCGA,-0.0279
16,GCAATAAA,0.227
17,AATATACG,0.116
18,AGCCTACC,-0.192
19,CAGGCAAC,0.0026
20,CATAACTC,-0.0451
21,ATAATGTG,0.12
22,ACGACAGC,-0.0101
23,CGATTAAG,0.125
24,CACCCTAG,0.0631
25,AATAGATT,0.0562

row,Sequence,PBM E-score
1,ATCTGACG,-0.0636
2,CGTATAAG,0.0649
3,ACCCTCAG,-0.135
4,GCGAGCGA,0.0756
5,AAGATACT,-0.0357
6,AATGTGGC,-0.00978
7,ATCGCATG,0.0992
8,TCTTACAA,0.0509
9,ATTAGGAC,-0.0107
10,CAACGAAA,0.166
11,ACGGGAGG,-0.169
12,GTTAATCA,0.256
13,GTGTTCCA,-0.0346
14,CCAAGTTC,-0.126
15,CGGCCCTA,-0.0174
16,GCACCAGC,-0.211
17,GCCGCTCA,-0.141
18,GTAAACTA,0.184
19,ATGGAACG,0.0119
20,AGTTAATC,0.0976
21,AGTCAACG,-0.0169
22,GAAAACAC,0.189
23,GCACCAAA,-0.0158
24,ATCCAGAC,-0.109
25,AGAGGTGA,0.12

row,Sequence,PBM E-score
1,CTTAGTAC,0.0262
2,AGCCGTGA,-0.018
3,ACGCCCTA,-0.166
4,ACAGTTAA,0.19
5,AGTTGCGG,0.146
6,ACAAGGTC,-0.0989
7,ATCCATCC,0.118
8,GACGCAAC,-0.0173
9,AAGTCCAT,-0.073
10,GTAAGCCA,0.0132
11,AAGCGGAA,0.087
12,CATCATGC,0.117
13,ATTTCTTG,0.171
14,CCCATCCG,-0.229
15,CCCATATA,0.0424
16,GGGACACA,-0.0101
17,AGTGAAAC,0.0554
18,CATTATGC,0.0641
19,GAGTTACA,0.0801
20,ATATTCTC,0.295
21,CATATGAC,0.102
22,GCACTTCA,0.0301

# — the supplement of paper PMC3334620
